According to publication PMC7862700:
This is a selection; strong and weak results do not stand in their true shares. For part of these data: At the low end of the ranking the order means little. This is one part of the list. For part of these data: Construct or isoform of the protein are uncertain.

Amino acid sequences for entries named in this document (tags omitted). A change or cut given only in a name is not applied to a line headed by its entry.
UniProt Q00613: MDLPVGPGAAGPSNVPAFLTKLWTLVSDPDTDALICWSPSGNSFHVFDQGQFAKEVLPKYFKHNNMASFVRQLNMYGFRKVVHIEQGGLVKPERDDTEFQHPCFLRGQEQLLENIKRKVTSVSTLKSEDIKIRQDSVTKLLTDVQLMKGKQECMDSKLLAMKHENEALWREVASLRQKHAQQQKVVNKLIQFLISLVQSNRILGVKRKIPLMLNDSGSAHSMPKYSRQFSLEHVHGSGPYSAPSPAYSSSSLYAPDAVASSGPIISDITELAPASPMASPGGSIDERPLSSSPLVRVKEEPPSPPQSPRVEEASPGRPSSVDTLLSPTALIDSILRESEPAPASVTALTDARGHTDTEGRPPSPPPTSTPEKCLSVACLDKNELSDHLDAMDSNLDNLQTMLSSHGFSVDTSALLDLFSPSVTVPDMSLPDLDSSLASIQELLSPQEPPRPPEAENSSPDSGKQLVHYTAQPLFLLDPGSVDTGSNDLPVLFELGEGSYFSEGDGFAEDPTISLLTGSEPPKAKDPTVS

Tests used:
HSF1 = HSF1 (UniProt Q00613); assay: DAPPL (digital affinity profiling via proximity ligation, sequencing); conditions: 10 mM Tris-HCl pH 7.5, 50 mM NaCl, 1 mM DTT, 4% glycerol, room temperature, 30 min; GST-TFs on glutathione beads, 16-mer random dsDNA library, 0.1% …; high values mean tight binding; double strand, one strand shown; scale: fold enrichment (6-mer frequency, TF over GST control)
ELF2 = target: T1, ELF2 (UniProt Q15723); assay: as above; conditions: 10 mM Tris-HCl pH 7.5, 50 mM NaCl, 1 mM DTT, 4% glycerol, room temperature, 30 min; GST-TFs on glutathione beads, 16-mer random dsDNA library, 0.1% …; high values mean tight binding; double strand, one strand shown; scale: fold enrichment (6-mer frequency, TF over GST control)
T1 sequence: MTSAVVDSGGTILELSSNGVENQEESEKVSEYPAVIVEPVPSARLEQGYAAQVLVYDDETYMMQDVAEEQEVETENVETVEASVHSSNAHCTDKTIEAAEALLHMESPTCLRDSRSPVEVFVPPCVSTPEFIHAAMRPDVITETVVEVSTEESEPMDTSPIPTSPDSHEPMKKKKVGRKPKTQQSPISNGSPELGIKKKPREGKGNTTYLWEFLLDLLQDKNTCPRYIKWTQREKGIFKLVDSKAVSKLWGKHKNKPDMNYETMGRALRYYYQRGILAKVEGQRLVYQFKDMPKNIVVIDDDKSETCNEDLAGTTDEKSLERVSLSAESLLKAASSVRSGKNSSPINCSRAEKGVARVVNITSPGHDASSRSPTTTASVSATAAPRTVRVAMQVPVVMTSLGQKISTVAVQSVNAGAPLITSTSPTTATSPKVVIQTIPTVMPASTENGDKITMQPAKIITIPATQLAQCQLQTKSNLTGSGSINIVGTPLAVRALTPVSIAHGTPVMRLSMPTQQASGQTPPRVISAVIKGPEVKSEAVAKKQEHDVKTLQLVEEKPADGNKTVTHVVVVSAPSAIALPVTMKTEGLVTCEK

| Sequence | binding signal (HSF1) | binding signal (ELF2) |
| --- | --- | --- |
| GTTGTC | 0.623 | 0.835 |
| CGGCAC | 0.686 | 0.925 |
| GCGGCT | 0.923 | 0.888 |
| CCTGTA | 0.962 | 1.25 |
| TAACTG | 1.25 | 1.19 |
| CAAGTT | 0.933 | 1.03 |
